Reference: patent US20060015973

Amino acid sequences for entries named in this document (tags omitted). A change or cut given only in a name is not applied to a line headed by its entry.
UniProt O82132: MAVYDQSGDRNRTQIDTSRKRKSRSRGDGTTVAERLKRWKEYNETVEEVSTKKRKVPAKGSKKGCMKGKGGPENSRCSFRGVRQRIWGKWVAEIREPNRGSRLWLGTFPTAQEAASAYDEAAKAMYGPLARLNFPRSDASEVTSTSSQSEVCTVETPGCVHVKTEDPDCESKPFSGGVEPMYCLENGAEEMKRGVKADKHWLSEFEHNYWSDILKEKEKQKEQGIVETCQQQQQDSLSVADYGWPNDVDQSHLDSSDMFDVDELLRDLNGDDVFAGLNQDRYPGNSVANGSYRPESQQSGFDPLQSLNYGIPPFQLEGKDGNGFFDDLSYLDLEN
UniProt Q9M0L0: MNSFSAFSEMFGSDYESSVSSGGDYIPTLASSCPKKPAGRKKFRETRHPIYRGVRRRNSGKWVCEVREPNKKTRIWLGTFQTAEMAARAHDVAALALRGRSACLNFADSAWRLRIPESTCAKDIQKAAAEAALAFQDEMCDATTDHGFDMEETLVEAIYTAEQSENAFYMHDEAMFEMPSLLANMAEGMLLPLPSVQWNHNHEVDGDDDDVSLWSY

Assays:
[1] = target: DREB2A (Arabidopsis thaliana) (UniProt O82132); assay: activity in cells; conditions: GUS transactivation vs empty effector, T87 protoplasts; DRE reporter built as in cited Liu et al 1998; protein in cells
[2] = target: DREB1A (Arabidopsis thaliana) (UniProt Q9M0L0); assay: activity in cells; conditions: GUS activity increased in Arabidopsis leaf protoplasts; protein in cells
[3] = target: DREB2A (Arabidopsis thaliana) (UniProt O82132); assay: one hybrid; conditions: GAL4 AD-cDNA fusion in yeast YM4271; protein in cells
[4] = target: DREB1A (Arabidopsis thaliana) (UniProt Q9M0L0); assay: one hybrid; conditions: GAL4 AD-cDNA fusion in yeast YM4271; protein in cells

CAGTTTGAAAGAAAAGGGAAAAAAAGAAAAAATAAATAAAAGATATACTACCGACATGAGTTCCAAAAAGC (double strand)
activity on this sequence [1]: active
activity on this sequence [2]: active
binding result [3]: binds
binding result [4]: binds

For some of these results: Results from cells or extracts need not show a direct contact.
